# According to PubChem BioAssay AID590 (National Center for Advancing Translational Sciences (NCATS), 2007):
# Out of some 59,000 compounds screened, about 6,500 (11%) were called active. Inconclusive means that the source gave no clear call. Such entries were picked first, then a sample of the others. Cut-off read from the data, not from the text of the source: active = max dye-equivalent concentration above about 10 nM; inconclusive = mostly about 1.1 nM to 9.6 nM; inactive = weaker than that.
# Assay: qHTS Assay for Spectroscopic Profiling in A350 Spectral Region
# Details: Compound autofluorescence, 340/450 nm, Alexa 350 dye-equivalents; stronger effect = higher value
row,Structure (SMILES),max dye-equivalent concentration
1,CC(C)(C)OC(=O)N1CCCC1C(=O)N1CCc2ccccc21 (stereo unspecified),inconclusive: 2.3 nM
2,CC1CN(S(=O)(=O)c2cccc(C(=O)OCC(=O)Nc3ccc4c(c3)OCO4)c2)CC(C)O1 (stereo unspecified),inconclusive: 8.4 nM
3,Cc1cc(C)n2nc(CC(=O)NC3CCCCCC3)nc2n1,inactive
4,CN1CCN(Cc2cc(=O)oc3cc4c(cc23)CCC4)CC1,inconclusive: 8.7 nM
5,COc1ccccc1N(C(=O)c1snc(C(N)=O)c1N)C(C(=O)NCCC(C)C)c1ccco1 (stereo unspecified),active: 220 nM
6,CN(C)S(=O)(=O)c1cccc(C(=O)Nc2ccc(Cl)cn2)c1,inconclusive: 2.1 nM
7,Cn1c2ccccc2c2nnc(SCc3ccc4nonc4c3)nc21,inconclusive: 2.6 nM
8,O=C(COC(=O)C1CCC1)Nc1ccc(OC(F)F)cc1,inconclusive: 4.1 nM
9,O=C1CCCCCN1CP(=O)(O)CN1CCOCC1,inactive
10,CCOc1ccc2nc(-c3ccc(OC)c(OC)c3)cc(C(=O)O)c2c1,active: 23 nM
11,Cc1cccc(NC(=O)c2cc3ccccc3o2)c1,inactive
12,CCOC(=O)C1CCN(S(=O)(=O)c2cnc[nH]2)CC1,inactive
13,COc1ccc(NC(=O)CC(NCCc2ccccc2)C(=O)O)c(OC)c1 (stereo unspecified),inconclusive: 1.4 nM
14,O=c1c(-c2ccc(Cl)cc2)nc2cnc(N3CCOCC3)nc2n1C[C@H]1CCCO1,inconclusive: 4.3 nM
15,c1cncc(Oc2cccc(Oc3cccnc3)c2)c1,inconclusive: 5.1 nM
16,O=C(CSc1nnc(-c2ccncc2)n1Cc1ccco1)OC1CCCCC1,inconclusive: 1.2 nM
17,CCN(c1nc(N)c(C(=O)N=C(N)N)nc1Cl)C(C)C,inconclusive: 6.2 nM
18,c1ccc(CN(CC2=NCCN2)c2ccccc2)cc1,inconclusive: 2.8 nM
19,Cc1cc(N)n(-c2nc(-c3cccnc3)nc3ccccc23)n1,inconclusive: 5 nM
20,ON1C(c2ccc(Cl)cc2Cl)N(O)[C@H]2CCCC[C@H]21 (stereo partly specified),inconclusive: 4.1 nM
21,CN=c1oc2ccc(Cl)cc2cc1C(N)=O,inconclusive: 3.2 nM
22,Cc1c(C)c2cc(Cl)c(O)c(CN3CCCC(C)C3)c2oc1=O (stereo unspecified),active: 13000 nM
23,O=C(c1cc2c(=O)n3ccccc3nc2s1)N1CCOCC1,active: 4600 nM

row,Structure (SMILES),max dye-equivalent concentration
1,O=C(O)c1ccc(C(=O)c2ccc3c(c2)C(=O)N(Cc2ccco2)C3=O)cc1,inconclusive: 2.9 nM
2,Cc1nc2ccccc2c(=O)n1/N=C/c1ccc(N(C)C)cc1,inconclusive: 8.7 nM
3,O=c1oc2ccc3ccccc3c2cc1-c1nnc(-c2ccccc2)o1,active: 570 nM
4,Cn1c(=O)c(-c2ccc(Cl)cc2)nc2cnc(N3CCOCC3)nc21,active: 23 nM
5,COc1ccc(NC(=O)Nc2nccs2)cc1,inconclusive: 1.1 nM
6,CCN1CCN(C(c2ccccc2OC)c2nnnn2C2CCCCC2)CC1 (stereo unspecified),inconclusive: 5.1 nM
7,CCn1c(=O)[nH]c2cc(C(=O)N3CCN(c4ccccc4)CC3)ccc2c1=O,inactive
8,COc1ccc(/C=N\NC(=O)O)cc1,inconclusive: 8.8 nM
9,COCCn1c(=O)c(-c2ccc(F)cc2)nc2cnc(N3CCOCC3)nc21,inconclusive: 9.5 nM
10,COc1ccc(N2C(=O)CCC(C(=O)Nc3ccccn3)C2c2ccc(OC)c(OC)c2)cc1 (stereo unspecified),inactive
11,O=C(CSC1=NCCS1)Nc1ccnc2ccccc12,inactive
12,Cc1ccc(-c2nc3ncccn3c2NC2CCCC2)o1,inconclusive: 2 nM
13,S=c1[nH]c2ncccc2o1,inconclusive: 3.4 nM
14,C=CCNC(=O)C12CC3CC(C1)CC(C(=O)NCC=C)(C3)C2,inactive
15,O=C1CC(c2cccc(Br)c2)C2=C(CCCC2=O)N1 (stereo unspecified),active: 44 nM
16,C=C(C)CSc1nnc(-c2cccc(Cl)c2)n1N,inconclusive: 2.6 nM
17,CCN(CCCNC(=O)CN(C)S(=O)(=O)c1cccc2nsnc12)c1ccccc1,inactive
18,O=C(Nc1ccc(F)cc1F)c1cc2ncc(Br)cn2n1,inconclusive: 3.9 nM
19,CC1(C)Cc2c(sc(NC(=O)c3ccco3)c2C#N)C(C)(C)N1,inconclusive: 1.6 nM
20,Cn1c(SCC(=O)NCC2CCCO2)nc2c([nH]c3ccccc32)c1=O (stereo unspecified),inconclusive: 1.4 nM
21,Cc1ccccc1-c1nccc(NCCN2CCOCC2)n1,inactive
22,CC1(C)C2CCC1(C)C(NC(=O)CCN1CCCCC1)C2 (stereo unspecified),inactive
23,O=C(CCc1nc(-c2ccccc2F)no1)NCCc1ccccc1Cl,inconclusive: 1.4 nM

row,Structure (SMILES),max dye-equivalent concentration
1,CN(C)Cc1cc(C(C)(C)C)cc(CN(C)C)c1O,inactive
2,O=c1/c(=C\c2cccnc2)sc2nc3ccccc3n12,inactive
3,CCOc1nc(-c2ccccc2)ccc1-c1noc(-c2cccnc2)n1,inconclusive: 4.1 nM
4,CCc1cc2c(NC(C(=O)O)C(C)C)ncnc2s1 (stereo unspecified),inconclusive: 1.7 nM
5,Cc1ccc(C)c(S(=O)(=O)Nc2ccccc2C(=O)Nc2cc(C)on2)c1,active: 300 nM
6,CCOc1ccc(S(=O)(=O)n2nnc3ccccc32)cc1C(C)C,inactive
7,COc1ccc(C2C=C(c3ccccc3)Nc3ncnn32)cc1 (stereo unspecified),active: 430 nM
8,Cc1ccc(CNC(=O)CCCn2c(=O)[nH]c3ccccc3c2=O)cc1,inconclusive: 3.9 nM
9,O=C(O)CCCC(=O)Nc1ccccc1-n1ccnc1,inconclusive: 1.1 nM
10,C=CCN1C(=O)C2(C(C(=O)c3ccc(C)o3)=C(O)C(=O)N2CCCN2CCOCC2)c2ccccc21 (stereo unspecified),inconclusive: 1.3 nM
11,Cc1conc1NC(c1cccs1)c1ccc2cccnc2c1O (stereo unspecified),active: 19 nM
12,CC(=O)c1cc2c(cc1NS(=O)(=O)c1ccc3c(c1)OCCO3)OCO2,inactive
13,CC[C@@H]1OC(=O)[C@H](C)[C@H](O[C@@H]2C[C@](C)(OC)[C@H](O)[C@H](C)O2)[C@H](C)[C@H](O[C@@H]2O[C@@H](C)C[C@@H](N(C)C)[C@@H]2O)[C@](C)(O)C[C@H](C)[C@@H]2N[C@H](COCCOC)O[C@H]([C@@H]2C)[C@]1(C)O,inconclusive: 3.1 nM
14,C#CCSc1nnc(-c2cccc3ccccc23)o1,inconclusive: 1.5 nM
15,OCCCNc1ncnc2[nH]ncc12,inconclusive: 9.6 nM
16,Cc1ccc(S(=O)(=O)NCCC(=O)NCCN2CCCCCC2)cc1,inconclusive: 7.3 nM
17,CC(=O)OCC(=O)[C@H]1CC[C@H]2[C@@H]3CCC4=CC(=O)CC[C@]4(C)[C@H]3CC[C@]12C,inactive
18,CCn1c(CC(=O)Nc2ccc(C)cc2)nnc1SCC(=O)NCc1ccccc1,inconclusive: 2 nM
19,CN(C(=O)c1ccccn1)c1nnc(-c2ccncc2)s1,inconclusive: 2.6 nM
20,CC(C)(C)NC(=O)C(c1ccco1)N(Cc1ccc2c(c1)OCO2)C(=O)Cn1nnc2ccccc21 (stereo unspecified),inconclusive: 2.8 nM
21,COC(=O)c1ccc(NC(=O)CN2CCN(c3cccc(Cl)c3)CC2)cc1,inactive
22,CCn1c(SCCOc2ccc(Cl)cc2)nnc1-c1cccs1,inconclusive: 1.8 nM
23,Cc1cc(C)c2[nH]c(=O)c(CN(CC3CCCO3)C(=O)c3cnccn3)cc2c1 (stereo unspecified),inconclusive: 1.1 nM

row,Structure (SMILES),max dye-equivalent concentration
1,CCCOc1ccc(N2CC(C(=O)NC(C)C)CC2=O)cc1 (stereo unspecified),inactive
2,CC(=O)C1=C(O)C(=O)N(CCN2CCOCC2)C1c1ccc(N(C)C)cc1 (stereo unspecified),inactive
3,O=c1c(-c2cc(F)cc(F)c2)nc2cnc(N3CCOCC3)nc2n1Cc1ccc(F)cc1,inconclusive: 3.6 nM
4,CCN(C1CCCCC1)S(=O)(=O)c1ccc(OC)c(C)c1,inconclusive: 1.1 nM
5,CN1CCN(C(=O)CSc2nc(-c3ccncc3)ccc2C#N)CC1,inconclusive: 6.8 nM
6,Cn1c(NCCCN2CCOCC2)nc2c1c(=O)n(Cc1ccc(Cl)c(Cl)c1)c(=O)n2C,inactive
7,Cc1nc2sc(C#N)c(N)c2c2c1CCCC2,active: 410 nM
8,O=C(c1cccnc1NCc1ccc(F)cc1)N1CCOCC1,inconclusive: 4 nM
9,Cc1nn(-c2ccccc2)c(Cl)c1C(=O)Nc1c(C)n(C)n(-c2ccccc2)c1=O,active: 17 nM
10,CC(=O)[C@@]1(N=Nc2ccc(S(N)(=O)=O)cc2)CCOC1=O,inconclusive: 2.8 nM
11,COc1ncc2nc(-c3ccc(Cl)cc3)c(=O)n(C[C@H]3CCCO3)c2n1,active: 20 nM
12,O=C(Nc1ccc2c(c1)oc1ccccc12)N1CCOCC1,inactive
13,COC(=O)c1ccccc1NC(=O)c1cc2ncc(Br)cn2n1,inconclusive: 2.9 nM
14,CC(=O)c1cccc(NC(=O)c2ccco2)c1,inconclusive: 3 nM
15,CCS(=O)(=O)Nc1c(C(=O)OC)[nH]c2ccccc12,inconclusive: 2.4 nM
16,COc1cc2nc(-c3ccccc3)nc(N3CCCC3)c2cc1OC,inconclusive: 1.9 nM
17,COC(=O)c1ccc(C(=O)OC)c(NC(=O)Nc2ccc3c(c2)OCO3)c1,inconclusive: 7.7 nM
18,COC(=O)c1ccccc1NS(=O)(=O)c1ccc2c3c(cccc13)C(=O)N2,inconclusive: 8 nM
19,Cc1ccc(S(=O)(=O)NCCC(=O)N2CCN(Cc3ccccc3)CC2)cc1,inactive
20,CCCN[C@@H](C)C(=O)Nc1ccccc1C,inactive
21,O=C(O)CCCn1c(=O)[nH]c2ccccc2c1=O,inconclusive: 1.6 nM
22,Cc1cc(C)nc(NC(=O)NS(=O)(=O)Nc2ccc(Br)cn2)n1,inactive

# Some of these compounds in order of molar mass, rising.
row,Structure (SMILES),max dye-equivalent concentration
15,CCS(=O)(=O)Nc1c(C(=O)OC)[nH]c2ccccc12,inconclusive: 2.4 nM
11,COc1ncc2nc(-c3ccc(Cl)cc3)c(=O)n(C[C@H]3CCCO3)c2n1,active: 20 nM
19,Cc1ccc(S(=O)(=O)NCCC(=O)N2CCN(Cc3ccccc3)CC2)cc1,inactive

# Retrieved by structure from above:
row,Structure (SMILES),max dye-equivalent concentration
17,CCN(CCCNC(=O)CN(C)S(=O)(=O)c1cccc2nsnc12)c1ccccc1,inactive
6,CCOc1ccc(S(=O)(=O)n2nnc3ccccc32)cc1C(C)C,inactive
10,CC(=O)[C@@]1(N=Nc2ccc(S(N)(=O)=O)cc2)CCOC1=O,inconclusive: 2.8 nM
22,CC1(C)C2CCC1(C)C(NC(=O)CCN1CCCCC1)C2 (stereo unspecified),inactive
